Measured values taken from patent US20220112255A1.
Results are given in words; binding and its absence hold for the method and conditions named. Some results given as binding are weak or reduced against the parent protein; the word gives no strength. Tags and fused reporters may be left off the sequences shown.

Biological target: T1, C-terminal His-tagged HER4 receptor extracellular domain (ECD) construct (UniProt Q15303)
T1 sequence (looked up): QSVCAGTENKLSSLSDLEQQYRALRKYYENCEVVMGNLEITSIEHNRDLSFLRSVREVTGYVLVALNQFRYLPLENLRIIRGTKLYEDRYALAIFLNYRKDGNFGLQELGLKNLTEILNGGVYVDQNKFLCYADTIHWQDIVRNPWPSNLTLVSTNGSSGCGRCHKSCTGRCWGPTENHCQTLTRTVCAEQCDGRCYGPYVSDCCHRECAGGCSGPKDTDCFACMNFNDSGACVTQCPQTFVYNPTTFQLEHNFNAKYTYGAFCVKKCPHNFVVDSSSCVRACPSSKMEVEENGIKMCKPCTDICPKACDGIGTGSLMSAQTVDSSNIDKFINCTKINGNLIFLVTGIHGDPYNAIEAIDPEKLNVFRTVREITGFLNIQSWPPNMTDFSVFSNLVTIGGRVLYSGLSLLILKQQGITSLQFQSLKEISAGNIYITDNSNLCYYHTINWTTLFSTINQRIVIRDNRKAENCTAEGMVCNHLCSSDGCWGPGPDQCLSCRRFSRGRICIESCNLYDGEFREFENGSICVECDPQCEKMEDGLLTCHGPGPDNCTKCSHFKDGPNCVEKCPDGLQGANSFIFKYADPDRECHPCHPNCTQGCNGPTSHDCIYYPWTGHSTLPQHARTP
Assay: ELISA: His-tagged HER4 ECD captured by anti-His antibody; NRG-Fc; anti-human Fc-AP detection

binding: binds
Binder: DHEEPCGPSHKSFCLNGGLCYVIPTIPSPFCRCVENYTGARCEEVFL (Fc fusion, not shown: a dimerising Fc or GST) [WT NRG4 Fc fusion (parental hFcNRG4)]
